Data source: PubChem BioAssay AID743454 (Peter MacCallum Cancer Centre, 2014)
Here is one part, drawn at random, of about 18,000 reagents. 450 of them (2.5%) were called active. 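Single biological run; no consistent viability z cut-off exists, so the class columns, not z-scores, define the calls.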 A number with no mark means an inactive call.

- Screen: 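Knock-downs lowering viability or raising caspase 3/7 activity in vorinostat-treated resistant cells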 (primary screen)
- Cells: human HCT116-VR colon cancer cells, selected for vorinostat resistance
- Reagent: siRNA pool against human genes, 40 nM siRNA pool
- Time to read-out: vorinostat for 24 h, read-out about 72 h after transfection
- Treatment: vorinostat at 2.5 µM final
- Read-out: 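Cell viability by CellTiter-Fluor and caspase 3/7 activity by luminescence, each scaled to mock wells per plate, duplicates averaged, then robust z-scored over all plates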
- Scale: viability robust z-score: higher = more viable cells than screen typical; caspase robust z-score: higher = more caspase 3/7 activity than screen typical
- Rule for the call: 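Hits are knock-downs in viability class RV1/RV2 or caspase class CA1/CA2, excluding ones that killed cells in the no-drug cell-count arm; hits then retested with single siRNAs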

Gene	viability hit class	caspase hit class	viability robust z-score	caspase robust z-score
GYPB	no change	no change	0.99	-0.94
SFT2D3	no change	no change	1.14	-0.85
SIRPB1	no change	no change	-0.78	-1.09
OSBPL6	no change (active)	CA1 (caspase activation)	-0.8	5.16
CADM2	no change	no change	1.12	-0.01
MAGED2	no change	no change	1.25	-0.1
ING3	no change	no change	-1.04	-1.45
GLRX3	no change	no change	-0.68	0.4
GPR142	no change	no change	-1.88	4.09
GAST	no change	no change	-0.32	1.95
CTDSP2	no change	no change	0.34	0.2
MAPK9	no change	no change	-0.33	-0.62
GPR85	no change	no change	0.34	0.43
OR51A4	no change	no change	-1.25	-1.02
FYTTD1	no change	no change	1.36	-0.17
RPLP0	no change	no change	-4.59	-1.5
DYNC2LI1	no change	no change	-0.62	2.5
RANGAP1	no change	no change	0.19	-0.22
PRRG1	no change	no change	1.43	-0.15
SLC17A8	no change	no change	0.08	-1.04
LACC1	no change	no change	-0.12	-0.79
CSNK1G2	no change	no change	1.08	0.87
CRB3	no change	no change	-3.48	0.24
MTO1	no change	no change	-0.42	-0.44
ZMIZ1	no change	no change	0.45	-0.07
PARP16	no change	no change	0.08	-0.29
TEX19	no change	no change	-1.29	0.96
TTC13	no change	no change	-0.06	1.04
PRSS57	no change	no change	0.76	-0.06
FOXD1	no change	no change	-0.13	1.94
TEX9	no change	no change	1.11	0.01
HLA-DRB4	no change	no change	1.3	0.28
CGAS	no change	no change	0.62	1.4
PIK3R2	no change	no change	0.92	1.26
RNF40	no change (active)	CA1 (caspase activation)	-0.82	12.2
AURKA	no change	no change	-4.04	1.35
CAMKK1	no change	no change	1.36	-0.05
SLC5A8	no change	no change	0.06	-1.16
KPNA2	no change	no change	-0.34	1.09
